No constants are given. Whether binding was seen depends on the method and setting. In cells and extracts the contact can be indirect. These calls come from enrichment with a bait or labelling near it, and not all partners need be listed.
Biological target: Myeloperoxidase (human)
Experiment: affinity purification with mass spectrometry

B1: ILF3 (protein, UniProt Q12906 1-894)
chain: MRPMRIFVNDDRHVMAKHSSVYPTQEELEAVQNMVSHTERALKAVSDWIDEQEKGSSEQAESDNMDVPPEDDSKEGAGEQKTEHMTRTLRGVMRVGLVAKGLLLKGDLDLELVLLCKEKPTTALLDKVADNLAIQLAAVTEDKYEILQSVDDAAIVIKNTKEPPLSLTIHLTSPVVREEMEKVLAGETLSVNDPPDVLDRQKCLAALASLRHAKWFQARANGLKSCVIVIRVLRDLCTRVPTWGPLRGWPLELLCEKSIGTANRPMGAGEALRRVLECLASGIVMPDGSGIYDPCEKEATDAIGHLDRQQREDITQSAQHALRLAAFGQLHKVLGMDPLPSKMPKKPKNENPVDYTVQIPPSTTYAITPMKRPMEEDGEEKSPSKKKKKIQKKEEKAEPPQAMNALMRLNQLKPGLQYKLVSQTGPVHAPIFTMSVEVDGNSFEASGPSKKTAKLHVAVKVLQDMGLPTGAEGRDSSKGEDSAEETEAKPAVVAPAPVVEAVSTPSAAFPSDATAEQGPILTKHGKNPVMELNEKRRGLKYELISETGGSHDKRFVMEVEVDGQKFQGAGSNKKVAKAYAALAALEKLFPDTPLALDANKKKRAPVPVRGGPKFAAKPHNPGFGMGGPMHNEVPPPPNLRGRGRGGSIRGRGRGRGFGGANHGGYMNAGAGYGSYGYGGNSATAGYSQFYSNGGHSGNASGGGGGGGGGSSGYGSYYQGDNYNSPVPPKHAGKKQPHGGQQKPSYGSGYQSHQGQQQSYNQSPYSNYGPPQGKQKGYNHGQGSYSYSNSYNSPGGGGGSDYNYESKFNYSGSGGRSGGNSYGSGGASYNPGSHGGYGGGSGGGSSYQGKQGGYSQSNYNSPGSGQNYSGPPSSYQSSQGGYGRNADHSMNYQYR
**Q.** Which binding does the source give for B1 here?
**A.** Its binding is “binds”.
